The chains behind the UniProt entries cited, without tags or fusion partners. Where a name states a change or a piece, a line headed by the entry shows the natural chain unless it says otherwise.
UniProt P46734: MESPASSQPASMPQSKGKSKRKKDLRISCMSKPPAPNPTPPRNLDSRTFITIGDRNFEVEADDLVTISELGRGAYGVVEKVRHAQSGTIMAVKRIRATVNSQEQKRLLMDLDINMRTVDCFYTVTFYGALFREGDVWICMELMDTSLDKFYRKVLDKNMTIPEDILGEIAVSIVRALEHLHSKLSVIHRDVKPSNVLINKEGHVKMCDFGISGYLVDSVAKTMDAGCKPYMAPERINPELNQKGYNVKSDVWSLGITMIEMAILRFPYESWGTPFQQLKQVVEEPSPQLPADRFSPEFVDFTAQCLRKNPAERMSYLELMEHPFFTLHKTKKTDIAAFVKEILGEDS
UniProt Q8IUH5: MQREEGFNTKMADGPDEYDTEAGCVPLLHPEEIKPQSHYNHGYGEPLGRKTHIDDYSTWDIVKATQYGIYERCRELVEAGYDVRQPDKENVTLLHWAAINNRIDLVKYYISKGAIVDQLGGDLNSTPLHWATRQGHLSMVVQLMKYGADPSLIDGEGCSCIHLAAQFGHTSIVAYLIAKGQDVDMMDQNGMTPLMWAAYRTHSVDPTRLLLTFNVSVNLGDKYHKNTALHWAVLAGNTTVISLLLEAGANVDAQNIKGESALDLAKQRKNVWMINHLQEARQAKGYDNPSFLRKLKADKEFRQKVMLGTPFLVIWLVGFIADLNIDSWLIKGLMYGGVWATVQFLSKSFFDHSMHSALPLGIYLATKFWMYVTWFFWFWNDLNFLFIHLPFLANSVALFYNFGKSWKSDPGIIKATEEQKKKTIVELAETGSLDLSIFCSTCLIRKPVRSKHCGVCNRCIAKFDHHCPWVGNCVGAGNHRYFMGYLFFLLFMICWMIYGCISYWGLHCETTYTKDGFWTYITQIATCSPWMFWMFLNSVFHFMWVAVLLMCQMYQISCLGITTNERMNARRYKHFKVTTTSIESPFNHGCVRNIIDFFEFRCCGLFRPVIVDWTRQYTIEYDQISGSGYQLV

In patent US20150225704A1:

Target: FLAG-MKK3 (UniProt P46734)
Assay: co-immunoprecipitation, HEK293 cells

In the case of “myc-tagged full-length palmitoyl acyl transferase zinc-finger DHHC type containing 17 (zD17) (from UniProt Q8IUH5 1-632) (enzyme)”, the binding is reported as “no binding”.

Results are given in words; binding and its absence hold for the method and conditions named. In cells and extracts the contact can be indirect.
